The target of test [1] is P-glycoprotein (Pgp), expressed from a Pgp expression plasmid in MCF-7 cells (human) (UniProt P08183). Put plainly: co-IP; cell extracts in IP buffer (20 mM Hepes, 0.2 mM EDTA, 5% glycerol, 150 mM NaCl, 1% Nonidet P-40, protease inhibitors); IP with Pgp antibody (C219, Calbiochem); four washes in IP buffer; Western blot with p53 antibody (DO-1, Sigma); rabbit IgG as control.

Test [2] deals with P-glycoprotein (Pgp), endogenous in MCF-7/ADR cells (human (endogenous in MCF-7/ADR)) (UniProt P08183). The description is as above.

Among the data in paper PMC2956079 are binding values, retold here.

These are yes or no findings as the source states them, for the method shown. In cells and extracts the contact can be indirect. Some binding calls cover weakened binding; strength is not graded here.

For p53 (from UniProt P04637 1-393), the binding result in test [1] and in test [2] was “binds” in each case.
